Assay results published in publication PMC5844954.

Target: human LGN (residues 1-677) with a C-terminal FLAG-tag (human)
Assay: co-IP; HEK293T transfected with Par3-GFP, FLAG-LGN and HA-Insc, mitotic (nocodazole) lysates, anti-FLAG sepharose beads

B1: human Insc (residues 1-532) with an N-terminal HA-tag (protein, UniProt Q1MX18-2 1-532)
chain: MMALPGGRHLDSVTLPGQRLHLMQVDSVQRWMEDLKLMTECECMCVLQAKPISLEEDAQGDLILAGGPGPGDPLQLLLKRGWVISTELRRIGQKLAQDRWARVHSMSVRLTCHARSMVSEYSAVSRNSLKEMGEIEKLLMEKCSELSAVTERCLQVENEHVLKSMKACVSETLSMLGQHFGQLLELALTREVQALVRKIDASDNIYTTESTTGNLFSLTQEGAPLCRIIAKEGGVVALFKVCRQDSFRCLYPQALRTLASICCVEEGVHQLEKVDGVLCLADILTDNSHSEATRAEAAAVVAQVTSPHLPVTQHLSSFLESMEEIVTALVKLCQEASSGEVFLLASAALANITFFDTMACEMLLQLNAIRVLLEACSDKQRVDTPYTRDQIVTILANMSVLEQCASDIIQENGVQLIMGMLSEKPRSGTPAEVAACERVQQKAAVTLARLSRDPDVAREAVRLSCMSRLIELCRSPSERNSSDAVLVACLAALRRLAGVCPEGLQDSDFQQLVQPRLVDSFLLCSNMEESFV
- binding: binds

No constants are given. Whether binding was seen depends on the method and setting. Binding seen in cells or lysates may run through a third protein. A result given as binding can be weak or reduced; the word gives no strength. Tags and fused reporters may be left off the sequences shown.
